Protein sequences, listed by entry. Tags and fused reporters are not part of them. Lines headed by an entry give the natural chain unless they say otherwise; changes in a name come on top.
UniProt Q5BBF4: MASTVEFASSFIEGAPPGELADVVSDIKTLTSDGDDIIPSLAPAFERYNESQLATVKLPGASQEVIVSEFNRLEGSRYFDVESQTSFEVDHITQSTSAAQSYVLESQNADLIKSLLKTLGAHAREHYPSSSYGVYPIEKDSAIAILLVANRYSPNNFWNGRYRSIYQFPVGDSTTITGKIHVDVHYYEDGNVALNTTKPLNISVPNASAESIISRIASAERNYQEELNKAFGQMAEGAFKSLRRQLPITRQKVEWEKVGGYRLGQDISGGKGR
UniProt Q5BBX7: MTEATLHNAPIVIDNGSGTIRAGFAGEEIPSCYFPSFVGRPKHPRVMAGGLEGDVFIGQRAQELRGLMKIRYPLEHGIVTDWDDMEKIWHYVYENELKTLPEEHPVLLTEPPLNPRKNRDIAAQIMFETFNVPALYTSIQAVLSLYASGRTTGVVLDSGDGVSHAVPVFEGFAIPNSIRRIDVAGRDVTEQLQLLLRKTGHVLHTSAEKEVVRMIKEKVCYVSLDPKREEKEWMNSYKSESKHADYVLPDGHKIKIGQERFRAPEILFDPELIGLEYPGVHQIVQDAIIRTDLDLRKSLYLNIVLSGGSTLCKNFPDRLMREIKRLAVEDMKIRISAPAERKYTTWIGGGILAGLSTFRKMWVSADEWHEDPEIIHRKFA
UniProt P45444: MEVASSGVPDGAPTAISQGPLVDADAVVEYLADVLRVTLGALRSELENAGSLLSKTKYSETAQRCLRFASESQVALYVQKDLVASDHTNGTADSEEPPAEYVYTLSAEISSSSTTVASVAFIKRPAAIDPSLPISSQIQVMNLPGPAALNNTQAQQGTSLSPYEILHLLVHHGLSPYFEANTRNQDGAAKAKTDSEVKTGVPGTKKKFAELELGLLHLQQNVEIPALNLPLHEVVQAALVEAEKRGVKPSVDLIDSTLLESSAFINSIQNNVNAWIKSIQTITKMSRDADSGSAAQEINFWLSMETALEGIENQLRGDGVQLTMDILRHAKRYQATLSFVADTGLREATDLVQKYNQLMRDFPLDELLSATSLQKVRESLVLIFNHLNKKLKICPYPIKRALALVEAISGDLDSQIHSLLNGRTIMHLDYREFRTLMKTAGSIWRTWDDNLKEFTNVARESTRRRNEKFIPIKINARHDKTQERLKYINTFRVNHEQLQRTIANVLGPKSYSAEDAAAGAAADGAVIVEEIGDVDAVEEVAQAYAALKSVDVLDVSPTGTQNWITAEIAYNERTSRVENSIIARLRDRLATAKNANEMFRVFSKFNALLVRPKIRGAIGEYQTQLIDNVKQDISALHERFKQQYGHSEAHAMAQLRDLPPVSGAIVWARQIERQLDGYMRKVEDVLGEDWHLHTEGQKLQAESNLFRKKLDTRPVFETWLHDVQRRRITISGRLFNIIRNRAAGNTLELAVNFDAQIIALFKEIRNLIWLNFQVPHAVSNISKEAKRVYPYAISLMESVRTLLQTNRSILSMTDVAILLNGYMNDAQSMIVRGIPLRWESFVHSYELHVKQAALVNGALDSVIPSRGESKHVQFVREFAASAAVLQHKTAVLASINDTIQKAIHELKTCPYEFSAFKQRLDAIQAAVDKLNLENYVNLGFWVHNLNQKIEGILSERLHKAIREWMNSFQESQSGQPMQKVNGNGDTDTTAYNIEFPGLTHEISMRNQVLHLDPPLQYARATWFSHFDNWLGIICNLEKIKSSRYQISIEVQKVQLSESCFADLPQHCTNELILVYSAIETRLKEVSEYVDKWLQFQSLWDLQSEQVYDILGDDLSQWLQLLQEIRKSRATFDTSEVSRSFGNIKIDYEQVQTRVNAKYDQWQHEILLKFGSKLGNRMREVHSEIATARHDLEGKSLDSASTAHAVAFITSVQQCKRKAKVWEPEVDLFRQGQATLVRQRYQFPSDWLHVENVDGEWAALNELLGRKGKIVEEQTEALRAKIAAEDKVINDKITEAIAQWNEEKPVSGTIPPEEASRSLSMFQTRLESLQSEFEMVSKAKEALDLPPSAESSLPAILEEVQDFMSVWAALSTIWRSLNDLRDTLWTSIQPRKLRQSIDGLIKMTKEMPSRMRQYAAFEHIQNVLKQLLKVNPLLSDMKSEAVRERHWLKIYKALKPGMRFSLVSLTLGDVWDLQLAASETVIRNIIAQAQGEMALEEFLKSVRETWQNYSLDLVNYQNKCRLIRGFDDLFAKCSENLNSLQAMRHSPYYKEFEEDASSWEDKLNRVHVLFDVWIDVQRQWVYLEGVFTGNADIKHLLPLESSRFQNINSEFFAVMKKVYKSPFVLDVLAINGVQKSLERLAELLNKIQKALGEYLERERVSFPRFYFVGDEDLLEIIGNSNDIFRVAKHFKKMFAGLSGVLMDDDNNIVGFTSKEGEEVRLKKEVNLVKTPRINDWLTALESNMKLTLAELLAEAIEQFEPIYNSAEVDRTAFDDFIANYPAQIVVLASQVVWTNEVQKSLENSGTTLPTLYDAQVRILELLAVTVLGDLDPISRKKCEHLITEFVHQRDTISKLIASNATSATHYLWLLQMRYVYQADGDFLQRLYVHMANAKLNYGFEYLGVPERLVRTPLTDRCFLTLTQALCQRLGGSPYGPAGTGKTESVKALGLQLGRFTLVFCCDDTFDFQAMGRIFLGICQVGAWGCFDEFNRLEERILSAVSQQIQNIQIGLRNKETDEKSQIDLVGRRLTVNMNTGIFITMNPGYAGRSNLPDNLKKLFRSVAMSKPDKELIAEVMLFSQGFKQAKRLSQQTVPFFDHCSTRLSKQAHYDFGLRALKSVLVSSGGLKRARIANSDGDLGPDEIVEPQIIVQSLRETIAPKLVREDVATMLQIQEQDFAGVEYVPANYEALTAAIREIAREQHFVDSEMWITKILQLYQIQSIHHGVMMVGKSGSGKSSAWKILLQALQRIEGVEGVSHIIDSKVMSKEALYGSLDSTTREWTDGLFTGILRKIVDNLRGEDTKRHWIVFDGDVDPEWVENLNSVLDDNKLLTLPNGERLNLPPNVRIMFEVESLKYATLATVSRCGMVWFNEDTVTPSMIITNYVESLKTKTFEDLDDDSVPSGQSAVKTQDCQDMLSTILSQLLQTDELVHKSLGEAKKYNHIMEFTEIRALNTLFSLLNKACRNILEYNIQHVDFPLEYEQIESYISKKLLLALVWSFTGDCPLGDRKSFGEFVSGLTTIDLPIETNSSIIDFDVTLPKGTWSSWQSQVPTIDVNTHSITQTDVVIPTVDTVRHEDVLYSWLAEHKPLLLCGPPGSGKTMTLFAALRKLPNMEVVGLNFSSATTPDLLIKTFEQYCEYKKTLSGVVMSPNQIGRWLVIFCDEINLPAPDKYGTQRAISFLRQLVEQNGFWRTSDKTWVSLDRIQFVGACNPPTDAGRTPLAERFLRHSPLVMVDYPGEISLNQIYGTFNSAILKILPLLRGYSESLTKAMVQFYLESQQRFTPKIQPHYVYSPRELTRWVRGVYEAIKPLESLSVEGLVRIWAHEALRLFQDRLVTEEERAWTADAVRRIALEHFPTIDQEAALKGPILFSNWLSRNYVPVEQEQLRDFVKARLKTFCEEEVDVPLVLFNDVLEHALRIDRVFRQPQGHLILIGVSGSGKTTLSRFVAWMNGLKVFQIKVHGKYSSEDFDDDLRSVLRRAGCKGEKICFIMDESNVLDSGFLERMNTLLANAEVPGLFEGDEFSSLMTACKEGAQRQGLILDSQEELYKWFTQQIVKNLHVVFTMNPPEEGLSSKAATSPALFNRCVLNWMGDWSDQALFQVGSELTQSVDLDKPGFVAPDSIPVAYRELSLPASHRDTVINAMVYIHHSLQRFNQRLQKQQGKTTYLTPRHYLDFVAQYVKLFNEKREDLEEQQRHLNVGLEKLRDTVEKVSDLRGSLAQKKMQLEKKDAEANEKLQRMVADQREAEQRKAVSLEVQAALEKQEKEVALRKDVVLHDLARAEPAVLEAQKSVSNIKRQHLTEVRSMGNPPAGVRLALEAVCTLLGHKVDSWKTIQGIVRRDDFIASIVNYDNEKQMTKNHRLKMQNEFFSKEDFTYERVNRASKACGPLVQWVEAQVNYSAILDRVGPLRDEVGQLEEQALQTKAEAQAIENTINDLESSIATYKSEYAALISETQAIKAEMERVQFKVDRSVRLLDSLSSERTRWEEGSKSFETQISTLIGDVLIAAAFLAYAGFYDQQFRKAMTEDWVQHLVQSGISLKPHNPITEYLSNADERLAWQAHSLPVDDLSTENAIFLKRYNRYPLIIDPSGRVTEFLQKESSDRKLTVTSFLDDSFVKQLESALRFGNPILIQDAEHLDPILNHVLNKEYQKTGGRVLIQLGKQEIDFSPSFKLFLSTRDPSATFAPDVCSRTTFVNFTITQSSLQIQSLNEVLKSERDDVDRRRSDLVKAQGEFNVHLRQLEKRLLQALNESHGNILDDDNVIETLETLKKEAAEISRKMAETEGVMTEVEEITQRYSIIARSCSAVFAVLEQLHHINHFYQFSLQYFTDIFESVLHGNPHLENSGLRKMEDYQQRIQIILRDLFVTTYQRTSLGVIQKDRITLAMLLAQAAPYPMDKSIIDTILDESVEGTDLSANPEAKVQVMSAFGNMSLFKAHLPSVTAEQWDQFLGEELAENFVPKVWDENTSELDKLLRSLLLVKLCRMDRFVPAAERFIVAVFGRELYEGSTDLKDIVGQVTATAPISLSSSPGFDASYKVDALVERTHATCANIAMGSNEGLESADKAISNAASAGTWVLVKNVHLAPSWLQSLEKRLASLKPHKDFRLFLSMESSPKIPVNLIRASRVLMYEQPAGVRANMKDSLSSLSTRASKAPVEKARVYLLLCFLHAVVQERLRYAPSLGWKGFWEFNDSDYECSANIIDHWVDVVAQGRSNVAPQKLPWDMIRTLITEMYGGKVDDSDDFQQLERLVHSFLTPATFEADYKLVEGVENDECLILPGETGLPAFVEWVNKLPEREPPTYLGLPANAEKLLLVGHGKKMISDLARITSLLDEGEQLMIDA

In article PMC6065395:

Target: CapA-GFP fusion (A. nidulans) (UniProt Q5BBF4)
Experiment: co-IP; CapA-GFP held on anti-GFP MicroBeads from cell extract; western blots with antibodies against p150, Arp1 and dynein HC; strain without GFP tag as negative control

Row | binding | Substance
1 | binds | Arp1 (actin-related protein 1) (from UniProt Q5BBX7)
2 | binds | dynein heavy chain (HC) (from UniProt P45444 1-4345)

These are yes or no findings as the source states them, for the method shown. In cells and extracts the contact can be indirect. Binding can be weak; no strength is given.
